# Measured values published in the supplement of paper PMC8728848.
# The other results are listed elsewhere or left out.
# How the values were obtained:
# Experiment in all cases: glycan array binding signal (z-score within array); higher = stronger binding
# Details in all cases: glycan notation: IUPAC condensed, linker removed
# Gal3S(b1-4)Glc = target: Gal3S(b1-4)Glc
# How it was run: (§1)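 The binding signal is a Z-score computed within each array and averaged over linkers. Arrays of the same protein sequence at different concentrations or buffers were also averaged together. Data originate from 3228 arrays in the Consortium for Functional Glycomics database, kept only where the protein sequence was available.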
# Gal3S(b1-4)Glc6S = target: Gal3S(b1-4)Glc6S
# How it was run: as §1
# Gal3S(b1-4)GlcNAc = target: Gal3S(b1-4)GlcNAc
# How it was run: as §1
# [1] = target: Gal3S(b1-4)[Fuc(a1-3)]Glc6S
# How it was run: as §1
# [2] = target: Gal3S(b1-4)[Fuc(a1-3)]GlcNAc
# How it was run: as §1
# [3] = target: Gal3S(b1-4)[Fuc(a1-3)]GlcNAc6S
# How it was run: as §1
# Gal3S4S(b1-4)GlcNAc = target: Gal3S4S(b1-4)GlcNAc
# How it was run: as §1
# Gal3S6S(b1-4)GlcNAc = target: Gal3S6S(b1-4)GlcNAc
# How it was run: as §1
# Gal3S6S(b1-4)GlcNAc6S = target: Gal3S6S(b1-4)GlcNAc6S
# How it was run: as §1
# Gal4S(b1-4)GlcNAc = target: Gal4S(b1-4)GlcNAc
# How it was run: as §1
# Gal4S6S(b1-4)GlcNAc = target: Gal4S6S(b1-4)GlcNAc
# How it was run: as §1
# Gal6P(b1-4)GlcNAc = target: Gal6P(b1-4)GlcNAc
# How it was run: as §1
# Gal6S(b1-3)GlcNAc = target: Gal6S(b1-3)GlcNAc
# How it was run: as §1
# Gal6S(b1-3)GlcNAc6S = target: Gal6S(b1-3)GlcNAc6S
# How it was run: as §1
# Gal6S(b1-4)Glc = target: Gal6S(b1-4)Glc
# How it was run: as §1
# Gal6S(b1-4)Glc6S = target: Gal6S(b1-4)Glc6S
# How it was run: as §1
# Gal6S(b1-4)GlcNAc = target: Gal6S(b1-4)GlcNAc
# How it was run: as §1
# Gal6S(b1-4)GlcNAc6S = target: Gal6S(b1-4)GlcNAc6S
# How it was run: as §1
# GalNAc(a1-3)Gal = target: GalNAc(a1-3)Gal
# How it was run: as §1
# GalNAc(a1-3)GalNAc = target: GalNAc(a1-3)GalNAc
# How it was run: as §1
# [4] = target: GalNAc(a1-3)GalNAc(b1-3)Gal(a1-4)Gal(b1-4)Glc
# How it was run: as §1
# [5] = target: GalNAc(a1-3)GalNAc(b1-3)Gal(a1-4)Gal(b1-4)GlcNAc
# How it was run: as §1
# GalNAc(b1-3)Gal = target: GalNAc(b1-3)Gal
# How it was run: as §1
# [6] = target: GalNAc(b1-3)Gal(a1-4)Gal(b1-4)GlcNAc
# How it was run: as §1
# [7] = target: GalNAc(b1-3)Gal(a1-4)Gal(b1-4)GlcNAc(b1-3)Gal(b1-4)Glc
# How it was run: as §1
# [8] = target: GalNAc(b1-3)Gal(a1-6)Gal(b1-4)Glc
# How it was run: as §1
# GalNAc(b1-3)GalNAc = target: GalNAc(b1-3)GalNAc
# How it was run: as §1
# GalNAc(b1-3)GlcNAc = target: GalNAc(b1-3)GlcNAc
# How it was run: as §1
# GalNAc(b1-4)Gal(b1-4)Glc = target: GalNAc(b1-4)Gal(b1-4)Glc
# How it was run: as §1
# GalNAc(b1-4)GlcNAc = target: GalNAc(b1-4)GlcNAc
# How it was run: as §1
# [9] = target: GalNAc(b1-4)GlcNAc(b1-2)Man
# How it was run: as §1
# [10] = target: GalNAc(b1-4)GlcNAc(b1-2)Man(a1-3)[GalNAc(b1-4)GlcNAc(b1-2)Man(a1-6)]Man(b1-4)GlcNAc(b1-4)GlcNAc
# How it was run: as §1
# [11] = target: GalNAc(b1-4)GlcNAc(b1-3)GalNAc(b1-4)GlcNAc
# How it was run: as §1
# GalNAc(b1-4)GlcNAc6S = target: GalNAc(b1-4)GlcNAc6S
# How it was run: as §1
# GalNAc(b1-6)GalNAc = target: GalNAc(b1-6)GalNAc
# How it was run: as §1
# GalNAc3S(b1-4)GlcNAc = target: GalNAc3S(b1-4)GlcNAc
# How it was run: as §1
# GalNAc3S(b1-4)GlcNAc3S = target: GalNAc3S(b1-4)GlcNAc3S
# How it was run: as §1
# [12] = target: GalNAc3S(b1-4)[Fuc(a1-3)]GlcNAc
# How it was run: as §1
# GalNAc4S6S(b1-4)GlcNAc = target: GalNAc4S6S(b1-4)GlcNAc
# How it was run: as §1
# GalNAc6S(b1-4)GlcNAc = target: GalNAc6S(b1-4)GlcNAc
# How it was run: as §1
# Glc(a1-4)Glc = target: Glc(a1-4)Glc
# How it was run: as §1
# [13] = target: Glc(a1-4)Glc(a1-4)Glc(a1-4)Glc
# How it was run: as §1
# Glc(a1-6)Glc(a1-6)Glc = target: Glc(a1-6)Glc(a1-6)Glc
# How it was run: as §1
# [14] = target: Glc(a1-6)Glc(a1-6)Glc(a1-6)Glc
# How it was run: as §1
# Glc(b1-4)Glc = target: Glc(b1-4)Glc
# How it was run: as §1
# Glc(b1-6)Glc = target: Glc(b1-6)Glc
# How it was run: as §1
# GlcA(b1-3)Gal = target: GlcA(b1-3)Gal
# How it was run: as §1
# GlcA(b1-3)GlcNAc = target: GlcA(b1-3)GlcNAc
# How it was run: as §1
# GlcA(b1-6)Gal = target: GlcA(b1-6)Gal
# How it was run: as §1
# [15] = target: GlcA3S(b1-3)Gal(b1-4)GlcNAc(b1-2)Man
# How it was run: as §1
# [16] = target: GlcA3S(b1-3)Gal(b1-4)GlcNAc(b1-3)Gal(b1-4)Glc
# How it was run: as §1
# [17] = target: GlcNAc(a1-3)Gal(b1-4)GlcNAc
# How it was run: as §1
# [18] = target: GlcNAc(a1-4)Gal(b1-3)GlcNAc
# How it was run: as §1
# [19] = target: GlcNAc(a1-4)Gal(b1-4)GalNAc
# How it was run: as §1
# [20] = target: GlcNAc(a1-4)Gal(b1-4)GlcNAc
# How it was run: as §1
# [21] = target: GlcNAc(a1-4)Gal(b1-4)GlcNAc(b1-3)Gal(b1-4)Glc
# How it was run: as §1
# [22] = target: GlcNAc(a1-4)Gal(b1-4)GlcNAc(b1-3)Gal(b1-4)GlcNAc
# How it was run: as §1
# [23] = target: GlcNAc(a1-4)Gal(b1-4)GlcNAc(b1-3)Gal(b1-4)GlcNAc(b1-3)Gal(b1-4)GlcNAc
# How it was run: as §1
# [24] = target: GlcNAc(a1-4)Gal(b1-4)GlcNAc(b1-3)Gal(b1-4)[Fuc(a1-3)]GlcNAc(b1-3)Gal(b1-4)[Fuc(a1-3)]GlcNAc
# How it was run: as §1
# [25] = target: GlcNAc(a1-6)Gal(b1-4)GlcNAc
# How it was run: as §1
binder,measurement,setting,value
GS7807I-bvu-563-22-563 (Bacteroides vulgatus) (protein) IFSSCTDDFEKLNTSNIQVDPADLPFAAQCTEPMTYCYPPQQNMFQFWTNLTIDLYGGYFMTPNGNFTNGDMGENRGHSGGMYENYYLHIFNNTRRIIAQCDASGERGLSGVMRIVQAYGTLMTTDAYGPIPYSSILSGENEVYFEFDSQKDLYKAMLEDLSTAITDISAMGADEIAKLKSFDCWCNGDKDLWVKIANTMKLRMALRLSKRETEAGNAGMNLKAIATEAAQNTLATVNKDILIDKSLENEMWLMFNWGDCGFNANLVTIMSGTKDPRQPLYMTLNTGDIKNEAGTTTVAANSQYLGIRFASGLPAKPNSWGNFSGWIQGNNGSSYSMPLPIMKAAEAYFLLAEAKLRWDIGSESVKNLYENGIRVSMTNELAYRGAYAGIKEYPEGAVDAYINGTSTQIDYTDPIKAELSTPAVNKLSVKWDESASNEEKLERIITQKWLALFPLSTEGWAEQRRTGYPRFFPAFVNESNGAVNTEEGVRRVIYSSQAYDANAKGVEGGIKLLDEENSSKFGISGDKGGTHLWWDNADKGNF,glycan array binding signal (z-score),Gal3S(b1-4)Glc,-0.991
same,glycan array binding signal (z-score),Gal3S(b1-4)Glc6S,-0.158
same,glycan array binding signal (z-score),Gal3S(b1-4)GlcNAc,0.149
same,glycan array binding signal (z-score),[1],0.573
same,glycan array binding signal (z-score),[2],0.875
same,glycan array binding signal (z-score),[3],0.641
same,glycan array binding signal (z-score),Gal3S4S(b1-4)GlcNAc,-0.049
same,glycan array binding signal (z-score),Gal3S6S(b1-4)GlcNAc,-1.33
same,glycan array binding signal (z-score),Gal3S6S(b1-4)GlcNAc6S,0.51
same,glycan array binding signal (z-score),Gal4S(b1-4)GlcNAc,-1.03
same,glycan array binding signal (z-score),Gal4S6S(b1-4)GlcNAc,0.966
same,glycan array binding signal (z-score),Gal6P(b1-4)GlcNAc,-0.562
same,glycan array binding signal (z-score),Gal6S(b1-3)GlcNAc,0.978
same,glycan array binding signal (z-score),Gal6S(b1-3)GlcNAc6S,1.11
same,glycan array binding signal (z-score),Gal6S(b1-4)Glc,-0.222
same,glycan array binding signal (z-score),Gal6S(b1-4)Glc6S,-1.23
same,glycan array binding signal (z-score),Gal6S(b1-4)GlcNAc,-0.111
same,glycan array binding signal (z-score),Gal6S(b1-4)GlcNAc6S,-0.971
same,glycan array binding signal (z-score),GalNAc(a1-3)Gal,0.014
same,glycan array binding signal (z-score),GalNAc(a1-3)GalNAc,-0.653
same,glycan array binding signal (z-score),[4],-0.892
same,glycan array binding signal (z-score),[5],0.495
same,glycan array binding signal (z-score),GalNAc(b1-3)Gal,0.069
same,glycan array binding signal (z-score),[6],2.32
same,glycan array binding signal (z-score),[7],-0.527
same,glycan array binding signal (z-score),[8],-0.787
same,glycan array binding signal (z-score),GalNAc(b1-3)GalNAc,-0.866
same,glycan array binding signal (z-score),GalNAc(b1-3)GlcNAc,0.464
same,glycan array binding signal (z-score),GalNAc(b1-4)Gal(b1-4)Glc,0.944
same,glycan array binding signal (z-score),GalNAc(b1-4)GlcNAc,-0.355
same,glycan array binding signal (z-score),[9],0.444
same,glycan array binding signal (z-score),[10],1.39
same,glycan array binding signal (z-score),[11],0.274
same,glycan array binding signal (z-score),GalNAc(b1-4)GlcNAc6S,-0.201
same,glycan array binding signal (z-score),GalNAc(b1-6)GalNAc,0.445
same,glycan array binding signal (z-score),GalNAc3S(b1-4)GlcNAc,-1.13
same,glycan array binding signal (z-score),GalNAc3S(b1-4)GlcNAc3S,-0.31
same,glycan array binding signal (z-score),[12],-0.22
same,glycan array binding signal (z-score),GalNAc4S6S(b1-4)GlcNAc,0.241
same,glycan array binding signal (z-score),GalNAc6S(b1-4)GlcNAc,-0.718
same,glycan array binding signal (z-score),Glc(a1-4)Glc,0.111
same,glycan array binding signal (z-score),[13],0.004
same,glycan array binding signal (z-score),Glc(a1-6)Glc(a1-6)Glc,-0.703
same,glycan array binding signal (z-score),[14],-0.341
same,glycan array binding signal (z-score),Glc(b1-4)Glc,-0.567
same,glycan array binding signal (z-score),Glc(b1-6)Glc,-0.081
same,glycan array binding signal (z-score),GlcA(b1-3)Gal,0.185
same,glycan array binding signal (z-score),GlcA(b1-3)GlcNAc,2.5
same,glycan array binding signal (z-score),GlcA(b1-6)Gal,0.033
same,glycan array binding signal (z-score),[15],-0.698
same,glycan array binding signal (z-score),[16],-1.01
same,glycan array binding signal (z-score),[17],-0.479
same,glycan array binding signal (z-score),[18],1.66
same,glycan array binding signal (z-score),[19],0.602
same,glycan array binding signal (z-score),[20],-0.769
same,glycan array binding signal (z-score),[21],-1.2
same,glycan array binding signal (z-score),[22],-0.064
same,glycan array binding signal (z-score),[23],-0.676
same,glycan array binding signal (z-score),[24],2.71
same,glycan array binding signal (z-score),[25],1.37

# Shown as tab-separated lines: entries from further up.
binder	measurement	setting	value
GS7807I-bvu-563-22-563 (Bacteroides vulgatus) (protein) IFSSCTDDFEKLNTSNIQVDPADLPFAAQCTEPMTYCYPPQQNMFQFWTNLTIDLYGGYFMTPNGNFTNGDMGENRGHSGGMYENYYLHIFNNTRRIIAQCDASGERGLSGVMRIVQAYGTLMTTDAYGPIPYSSILSGENEVYFEFDSQKDLYKAMLEDLSTAITDISAMGADEIAKLKSFDCWCNGDKDLWVKIANTMKLRMALRLSKRETEAGNAGMNLKAIATEAAQNTLATVNKDILIDKSLENEMWLMFNWGDCGFNANLVTIMSGTKDPRQPLYMTLNTGDIKNEAGTTTVAANSQYLGIRFASGLPAKPNSWGNFSGWIQGNNGSSYSMPLPIMKAAEAYFLLAEAKLRWDIGSESVKNLYENGIRVSMTNELAYRGAYAGIKEYPEGAVDAYINGTSTQIDYTDPIKAELSTPAVNKLSVKWDESASNEEKLERIITQKWLALFPLSTEGWAEQRRTGYPRFFPAFVNESNGAVNTEEGVRRVIYSSQAYDANAKGVEGGIKLLDEENSSKFGISGDKGGTHLWWDNADKGNF	glycan array binding signal (z-score)	Gal3S4S(b1-4)GlcNAc	-0.049
same	glycan array binding signal (z-score)	Gal3S6S(b1-4)GlcNAc	-1.33
same	glycan array binding signal (z-score)	Gal3S6S(b1-4)GlcNAc6S	0.51
